In one assay the test system is SH-SY5Y cells. Description: Thapsigargin treated cell death assay in SH-SY5Y cells. Particulars: compound at 10 μM; positive = protection from cell death, negative = compound toxicity. From the text: Thapsigargin raises intracellular free calcium (Ca^2+) by potently inhibiting the endoplasmic reticulum Ca-ATPase, which sequesters Ca^2+ from the cytosol. The increased cytosolic Ca^2+ concentration is buffered by mitochondria by exchanging Ca^2+ for K, leading to depolarisation in the inner mitochondrial membrane and permeability transition.
The thapsigargin treated Jurkat cell death assay is a homogeneous 96 well plate based assay for cell death, instigated by the opening of the mitochondrial permeability transition pore (MPTP). The addition of thapsigargin to Jurkat cells results in an influx of calcium, the increase in intracellular calcium will initially be buffered by the mitochondria, but eventually the increasing calcium concentration will result in the opening of the MPTP, resulting in cell death.
CellTox™ Green is a dye which is unable to enter the cell until cell death leads to the loss of membrane integrity. Once this happens the CellTox™ Green enters the cell, binds to the cell's DNA and emits a fluorescent signal. […] Unless otherwise stated, the assay is typically run using a range of three compound concentrations of 1, 3 and 10 μM in triplicate and is read kinetically over a period of 24 hours. Compounds are added 30 minutes before the addition of thapsigargin. […] Results are typically calculated at the 8 hour time point and the kinetic data is also reported. […]

The chains behind the UniProt entries cited, without tags or fusion partners. Residues count along the entry.
UniProt P30405, 30-207 limits assumed: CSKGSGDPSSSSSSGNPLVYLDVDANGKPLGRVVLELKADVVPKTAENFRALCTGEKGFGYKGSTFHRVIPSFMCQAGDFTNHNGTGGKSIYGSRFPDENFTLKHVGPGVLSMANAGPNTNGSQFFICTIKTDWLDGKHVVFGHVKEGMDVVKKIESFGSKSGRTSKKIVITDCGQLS

The next assay deals with cyclophilin D (Homo sapiens (Human), UniProt P30405). Put plainly: Functional peptidyl prolyl isomerase (PPIase) spectrophotometric assay, cyclophilin D. Particulars: read-out: Ki CypD; second value of CypA/D cell. From the text: Cyclophilins are enzymes that catalyse the cis-trans isomerisation of peptide bonds to the amino acid proline. This event is important in many biological processes, including protein folding and signal transduction. […] The method to measure this activity and its inhibition is similar to that described by Jankowski (Analytical Biochemistry, 252, 2, 299-307 (1997)). The assay measures the cis to trans isomerisation of a peptide substrate catalysed by a PPlase enzyme using a UV/Vis spectrophotometer. This assay is a manual single cuvette-based assay. A first order rate equation is fitted to the absorbance data to obtain a rate constant. The catalytic rate is calculated from the enzymatic rate minus the background rate. The Ki (the concentration required to produce half maximum inhibition) for an inhibitor is obtained from the rate constant plotted against the inhibitor concentration. Typically, a 6-point dose response curve is obtained from duplicates and a Ki determined. Data are given in Table 5 as Ki [nM] for cyclophilins A and D, expressed in column 2 of Table 5 as Ki (cypA)/Ki (cypD).

The subject of assay [1] is permeabilised HepG2 cells. Description: Calcium retention capacity (CRC) assay in permeabilised HepG2 cells (MPTP opening). The arrangement: unit not given here. Conditions: compound at 10 μM; digitonin permeabilised HepG2 cells. The protocol: The use of permeabilised cells means that inhibitory compounds that may not normally enter non-permeabilised cells are more likely to be active.
The calcium retention capacity (CRC) is a measure of the capability of mitochondria to retain calcium, primarily in the form of calcium phosphates, in the mitochondrial matrix.
In a CRC assay, the calcium indicator Calcium Green-5N (InVitrogen) is utilized. […] The assay is carried out in HepG2 (human hepatocellular carcinoma) cells which are digitonin permeabilized. Trains of calcium pulses (typically 5 μM additions) are added which results in a sudden increase in fluorescence which is then reduced by mitochondrial buffering. The cells will reach a point at which the calcium addition is no longer buffered, an indication that the MPTP has opened (mitochondrial permeability transition).
The experiment is performed with and without inhibitor. A compound that acts to inhibit the mitochondrial pore opening will result in a greater requirement for calcium to reach the transition point. The results are normalised to a positive control (cyclosporin A) in each experiment. The results are shown in column 3 of Table 5 as CRC [10 μM] (ratio vs CsA). The method of digitonin permeabilised whole cell CRC assay is similar to that used by Chiara et al. (PLoS One, March, 3, 3, e1852 (2008)).

Structures were worked out from names or drawings and are uncertain.

As for `C[C@@H]1NC(=O)[C@H](CC2CCCNC2)OC(=O)C(C)(C)/C=C/c2ccc3ccc(nc3c2)N(C)NC(=O)[C@@H]2CCCN(N2)C1=O` (stereo partly drawn) [Compound (56)], the “SYSY [10 μM] % recovery” value in the assay with SH-SY5Y cells came out at 9%. Also, at cyclophilin D, the Ki (usually the equilibrium dissociation constant of an inhibitor or competing ligand from its target) was determined as 1700 nM. Also, the “CRC [10 μM]” value in assay [1] was 8.3.

(Values after patent US20250243219A1, “MACROCYCLIC COMPOUNDS AND USES THEREOF” (Cypralis Limited, priority 2022, published 2025).)
